The source of these data is patent US11485744B2, “High penetration prodrug compositions of antimicrobials and antimicrobial-related compounds” (priority 2009, dated 2022).

For this data set the following is noted: human, 10 %, pH 7.4. As to the method:
Penetration rates of HPPs and their parent drugs through human skin were measured in vitro by modified Franz cells. A Franz cell had two chambers, the top sample chamber and the bottom receiving chamber. The human skin tissue (360-400 μm thick) that separated the top and the receiving chambers was isolated from the anterior or posterior thigh areas.
A test compound (2 mL, 10% in 0.2 M phosphate buffer, pH 7.4) was added to the sample chamber of a Franz cell. The receiving chamber contained 10 ml of 0.2 M phosphate buffer which was stirred at 600 rpm. The amount of the tested compound penetrating the skin was determined by high-performance liquid chromatography (HPLC) method.

As to `O=C(O)c1cn(C2CC2)c2cc(N3CCNCC3)c(F)cc2c1=O` [Ciprofloxacin, 1-cyclopropyl-6-fluoro-4-oxo-7-piperazin-1-yl-quinoline-3-carboxylic acid], the “In vitro Penetration Rate (apparent flux), Parent compounds (sulfonamides, sulfones, quinolones)” value is given as less than 0.001 mg/cm^2/h. In the case of `Nc1ccc(S(N)(=O)=O)cc1` [sulfanilamide, 4-aminobenzenesulfonamide, reference compound], the “In vitro Penetration Rate (apparent flux), Parent compounds (sulfonamides, sulfones, quinolones)” value is less than 0.001 mg/cm^2/h.
